In the test the target is p300 (mouse (endogenous in mouse VSMCs)) (UniProt B2RWS6). Description: co-IP; lysates of mouse VSMCs (transfected with ASO-Gm40097, pcDNA-Gm40097 or controls for 24 h, treated or not with AngII for 24 h) immunoprecipitated with anti-Ythdc1, anti-p300 or anti-Klf5 and immunoblotted for Ythdc1, p300 and Klf5.

The chains behind the UniProt entries cited, without tags or fusion partners.
UniProt B2RWS6: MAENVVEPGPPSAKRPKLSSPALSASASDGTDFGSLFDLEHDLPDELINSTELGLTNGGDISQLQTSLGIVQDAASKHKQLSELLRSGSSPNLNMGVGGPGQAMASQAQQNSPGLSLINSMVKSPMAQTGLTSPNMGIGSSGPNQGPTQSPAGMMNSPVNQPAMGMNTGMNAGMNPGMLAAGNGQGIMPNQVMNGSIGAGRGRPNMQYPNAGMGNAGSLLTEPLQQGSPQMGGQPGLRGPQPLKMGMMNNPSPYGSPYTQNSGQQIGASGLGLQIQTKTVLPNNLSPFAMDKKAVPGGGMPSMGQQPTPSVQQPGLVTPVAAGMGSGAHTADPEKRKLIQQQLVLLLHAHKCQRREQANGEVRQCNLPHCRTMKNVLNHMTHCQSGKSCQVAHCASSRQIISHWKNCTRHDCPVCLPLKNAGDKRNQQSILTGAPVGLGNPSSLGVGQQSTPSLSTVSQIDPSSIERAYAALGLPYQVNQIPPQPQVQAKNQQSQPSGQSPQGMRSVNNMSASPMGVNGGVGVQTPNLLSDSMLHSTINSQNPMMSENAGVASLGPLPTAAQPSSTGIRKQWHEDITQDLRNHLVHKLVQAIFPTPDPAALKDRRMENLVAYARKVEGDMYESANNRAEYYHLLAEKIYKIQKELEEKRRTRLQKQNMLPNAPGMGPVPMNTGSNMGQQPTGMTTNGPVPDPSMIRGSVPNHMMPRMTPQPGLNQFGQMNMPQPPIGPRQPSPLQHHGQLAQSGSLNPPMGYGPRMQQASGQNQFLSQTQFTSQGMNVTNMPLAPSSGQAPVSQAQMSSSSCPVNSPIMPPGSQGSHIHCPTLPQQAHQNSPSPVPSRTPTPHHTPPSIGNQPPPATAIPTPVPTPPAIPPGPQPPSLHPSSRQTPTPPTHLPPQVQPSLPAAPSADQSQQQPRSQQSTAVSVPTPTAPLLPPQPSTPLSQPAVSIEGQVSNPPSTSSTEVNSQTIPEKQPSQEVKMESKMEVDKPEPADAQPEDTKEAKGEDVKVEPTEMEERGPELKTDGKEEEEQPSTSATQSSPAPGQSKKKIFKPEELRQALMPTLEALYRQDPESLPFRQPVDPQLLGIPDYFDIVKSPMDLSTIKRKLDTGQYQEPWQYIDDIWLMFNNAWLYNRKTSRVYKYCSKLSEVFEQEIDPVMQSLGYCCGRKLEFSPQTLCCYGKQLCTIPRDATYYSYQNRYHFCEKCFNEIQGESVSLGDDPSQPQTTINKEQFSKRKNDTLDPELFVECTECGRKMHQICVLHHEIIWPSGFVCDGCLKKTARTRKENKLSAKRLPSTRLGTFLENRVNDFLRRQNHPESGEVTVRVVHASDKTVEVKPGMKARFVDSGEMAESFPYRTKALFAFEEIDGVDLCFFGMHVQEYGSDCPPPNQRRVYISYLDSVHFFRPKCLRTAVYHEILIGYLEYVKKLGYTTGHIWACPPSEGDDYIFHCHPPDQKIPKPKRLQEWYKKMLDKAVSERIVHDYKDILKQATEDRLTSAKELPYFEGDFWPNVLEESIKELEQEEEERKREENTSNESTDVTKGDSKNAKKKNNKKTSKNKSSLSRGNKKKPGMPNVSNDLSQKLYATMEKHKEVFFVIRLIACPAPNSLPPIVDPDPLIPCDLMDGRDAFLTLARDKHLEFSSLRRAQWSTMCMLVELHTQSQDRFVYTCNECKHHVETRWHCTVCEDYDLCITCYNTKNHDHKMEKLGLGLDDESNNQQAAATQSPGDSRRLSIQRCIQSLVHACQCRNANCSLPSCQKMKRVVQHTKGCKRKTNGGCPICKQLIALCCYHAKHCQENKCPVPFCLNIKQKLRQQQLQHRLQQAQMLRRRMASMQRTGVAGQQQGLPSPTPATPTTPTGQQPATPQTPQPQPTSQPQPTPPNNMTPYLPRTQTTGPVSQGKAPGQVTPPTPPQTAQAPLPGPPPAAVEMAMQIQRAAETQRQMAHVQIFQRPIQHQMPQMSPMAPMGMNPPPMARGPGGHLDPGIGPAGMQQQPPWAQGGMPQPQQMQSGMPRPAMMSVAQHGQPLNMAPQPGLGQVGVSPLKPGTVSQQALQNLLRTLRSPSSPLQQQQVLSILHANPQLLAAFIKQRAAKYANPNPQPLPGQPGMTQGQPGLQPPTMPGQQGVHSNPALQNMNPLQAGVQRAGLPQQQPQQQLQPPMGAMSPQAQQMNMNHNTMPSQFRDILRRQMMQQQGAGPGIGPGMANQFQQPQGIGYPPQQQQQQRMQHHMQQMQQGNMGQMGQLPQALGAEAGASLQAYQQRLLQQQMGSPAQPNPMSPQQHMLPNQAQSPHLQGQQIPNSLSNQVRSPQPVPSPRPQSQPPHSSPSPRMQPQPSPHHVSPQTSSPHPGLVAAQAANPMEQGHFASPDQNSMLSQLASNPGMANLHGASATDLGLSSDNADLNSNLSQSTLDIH
UniProt Q9Z0Z7: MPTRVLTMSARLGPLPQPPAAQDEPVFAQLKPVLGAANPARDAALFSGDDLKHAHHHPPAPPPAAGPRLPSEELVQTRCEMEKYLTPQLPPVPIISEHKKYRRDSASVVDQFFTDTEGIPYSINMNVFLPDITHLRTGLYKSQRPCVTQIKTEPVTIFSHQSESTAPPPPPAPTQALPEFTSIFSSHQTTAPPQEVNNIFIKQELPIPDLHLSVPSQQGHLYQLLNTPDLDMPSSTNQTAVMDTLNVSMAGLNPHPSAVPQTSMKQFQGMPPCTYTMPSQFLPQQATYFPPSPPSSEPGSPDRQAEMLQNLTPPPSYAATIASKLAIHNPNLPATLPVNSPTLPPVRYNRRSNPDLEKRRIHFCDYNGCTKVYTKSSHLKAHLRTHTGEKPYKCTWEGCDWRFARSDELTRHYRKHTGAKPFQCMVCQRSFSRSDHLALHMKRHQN

No constants are given. Whether binding was seen depends on the method and setting. Binding seen in cells or lysates may run through a third protein. Some binding calls cover weakened binding; strength is not graded here.

For “Krüppel‐like zinc‐finger transcription factor Klf5 (from UniProt Q9Z0Z7 1-446)”, the binding entry is listed as “binds”.
